{
  "source": "the supplement of paper PMC8728848",
  "binders": {"B1": {"name": "pTFF2 (Sus scrofa), P01359 (protein)", "chain": "KPAACRCSRQDPKNRVNCGFPGITSDQCFTSGCCFDSQVPGVPWCFKPLPAQESEECVMEVSARKNCGYPGISPEDCAARNCCFSDTIPEVPWCFFPMSVEACHY"}},
  "assay_in_all_cases": "glycan array binding signal (z-score within array); higher = stronger binding",
  "details_in_all_cases": "glycan notation: IUPAC condensed, linker removed",
  "key": {"[1]": {"biological_target": "Neu5Ac(a2-3)Gal(b1-3)GlcNAc(b1-6)GalNAc", "in_short": "(§1)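 Glycan array data were curated from 3228 arrays in the Consortium for Functional Glycomics database and kept only where the protein sequence was available. Glycan names were converted to IUPAC-condensed notation, and columns mapping to the same glycan were averaged. The binding signal is a within-array Z-score, averaged across arrays of the same protein sequence at different concentrations or buffers and across linkers. Negative Z-scores can be read as non-binding.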"}, "[2]": {"biological_target": "Neu5Ac(a2-3)Gal(b1-3)GlcNAc6S", "in_short": "as §1"}, "[3]": {"biological_target": "Neu5Ac(a2-3)Gal(b1-3)[Fuc(a1-4)]GlcNAc", "in_short": "as §1"}, "[4]": {"biological_target": "Neu5Ac(a2-3)Gal(b1-3)[Fuc(a1-4)]GlcNAc(b1-3)Gal(b1-3)[Fuc(a1-4)]GlcNAc", "in_short": "as §1"}, "[5]": {"biological_target": "Neu5Ac(a2-3)Gal(b1-3)[Fuc(a1-4)]GlcNAc(b1-3)Gal(b1-4)[Fuc(a1-3)]GlcNAc", "in_short": "as §1"}, "[6]": {"biological_target": "Neu5Ac(a2-3)Gal(b1-3)[GlcNAc(b1-6)]GalNAc", "in_short": "as §1"}, "[7]": {"biological_target": "Neu5Ac(a2-3)Gal(b1-3)[Neu5Ac(a2-6)]GalNAc", "in_short": "as §1"}, "[8]": {"biological_target": "Neu5Ac(a2-3)Gal(b1-3)[Neu5Ac(a2-6)]GlcNAc(b1-3)[Fuc(a1-3)[Gal(b1-4)]GlcNAc(b1-6)]Gal(b1-4)Glc", "in_short": "as §1"}, "[9]": {"biological_target": "Neu5Ac(a2-3)Gal(b1-3)]Neu5Ac(a2-3)Gal(b1-4)]GlcNAc", "in_short": "as §1"}, "Neu5Ac(a2-3)Gal(b1-4)Glc": {"biological_target": "Neu5Ac(a2-3)Gal(b1-4)Glc", "in_short": "as §1"}, "[10]": {"biological_target": "Neu5Ac(a2-3)Gal(b1-4)GlcNAc", "in_short": "as §1"}, "[11]": {"biological_target": "Neu5Ac(a2-3)Gal(b1-4)GlcNAc(b1-2)Man", "in_short": "as §1"}, "[12]": {"biological_target": "Neu5Ac(a2-3)Gal(b1-4)GlcNAc(b1-2)Man(a1-3)[GlcNAc(b1-4)][Neu5Ac(a2-3)Gal(b1-4)GlcNAc(b1-2)Man(a1-6)]Man(b1-4)GlcNAc(b1-4)GlcNAc", "in_short": "as §1"}, "[13]": {"biological_target": "Neu5Ac(a2-3)Gal(b1-4)GlcNAc(b1-2)Man(a1-3)[Neu5Ac(a2-3)Gal(b1-4)GlcNAc(b1-2)Man(a1-6)]Man(b1-4)GlcNAc(b1-4)GlcNAc", "in_short": "as §1"}, "[14]": {"biological_target": "Neu5Ac(a2-3)Gal(b1-4)GlcNAc(b1-2)Man(a1-3)[Neu5Ac(a2-3)Gal(b1-4)GlcNAc(b1-2)Man(a1-6)]Man(b1-4)GlcNAc(b1-4)[Fuc(a1-6)]GlcNAc", "in_short": "as §1"}, "[15]": {"biological_target": "Neu5Ac(a2-3)Gal(b1-4)GlcNAc(b1-2)Man(a1-3)[Neu5Ac(a2-6)Gal(b1-4)GlcNAc(b1-2)Man(a1-6)]Man(b1-4)GlcNAc(b1-4)GlcNAc", "in_short": "as §1"}, "[16]": {"biological_target": "Neu5Ac(a2-3)Gal(b1-4)GlcNAc(b1-2)[Neu5Ac(a2-3)Gal(b1-4)GlcNAc(b1-4)]Man(a1-3)[GlcNAc(b1-4)][Neu5Ac(a2-3)Gal(b1-4)GlcNAc(b1-2)[Neu5Ac(a2-3)Gal(b1-4)GlcNAc(b1-6)]Man(a1-6)]Man(b1-4)GlcNAc(b1-4)GlcNAc", "in_short": "as §1"}, "[17]": {"biological_target": "Neu5Ac(a2-3)Gal(b1-4)GlcNAc(b1-2)[Neu5Ac(a2-3)Gal(b1-4)GlcNAc(b1-4)]Man(a1-3)[GlcNAc(b1-4)][Neu5Ac(a2-3)Gal(b1-4)GlcNAc(b1-4)Man(a1-6)]Man(b1-4)GlcNAc(b1-4)GlcNAc", "in_short": "as §1"}, "[18]": {"biological_target": "Neu5Ac(a2-3)Gal(b1-4)GlcNAc(b1-2)[Neu5Ac(a2-3)Gal(b1-4)GlcNAc(b1-6)]Man(a1-6)[Neu5Ac(a2-3)Gal(b1-4)GlcNAc(b1-2)Man(a1-3)][GlcNAc(b1-4)]Man(b1-4)GlcNAc(b1-4)GlcNAc", "in_short": "as §1"}, "[19]": {"biological_target": "Neu5Ac(a2-3)Gal(b1-4)GlcNAc(b1-3)Gal", "in_short": "as §1"}, "[20]": {"biological_target": "Neu5Ac(a2-3)Gal(b1-4)GlcNAc(b1-3)Gal(b1-3)GlcNAc", "in_short": "as §1"}, "[21]": {"biological_target": "Neu5Ac(a2-3)Gal(b1-4)GlcNAc(b1-3)Gal(b1-4)GlcNAc", "in_short": "as §1"}, "[22]": {"biological_target": "Neu5Ac(a2-3)Gal(b1-4)GlcNAc(b1-3)Gal(b1-4)GlcNAc(b1-2)Man(a1-3)[Neu5Ac(a2-3)Gal(b1-4)GlcNAc(b1-3)Gal(b1-4)GlcNAc(b1-2)Man(a1-6)]Man(b1-4)GlcNAc(b1-4)GlcNAc", "in_short": "as §1"}, "[23]": {"biological_target": "Neu5Ac(a2-3)Gal(b1-4)GlcNAc(b1-3)Gal(b1-4)GlcNAc(b1-3)Gal(b1-4)GlcNAc", "in_short": "as §1"}, "[24]": {"biological_target": "Neu5Ac(a2-3)Gal(b1-4)GlcNAc(b1-3)Gal(b1-4)GlcNAc(b1-3)Gal(b1-4)GlcNAc(b1-2)Man(a1-3)[Neu5Ac(a2-3)Gal(b1-4)GlcNAc(b1-3)Gal(b1-4)GlcNAc(b1-3)Gal(b1-4)GlcNAc(b1-2)Man(a1-6)]GalNAc", "in_short": "as §1"}, "[25]": {"biological_target": "Neu5Ac(a2-3)Gal(b1-4)GlcNAc(b1-3)Gal(b1-4)GlcNAc(b1-3)GalNAc", "in_short": "as §1"}, "[26]": {"biological_target": "Neu5Ac(a2-3)Gal(b1-4)GlcNAc(b1-3)Gal(b1-4)GlcNAc(b1-3)[Neu5Ac(a2-3)Gal(b1-4)GlcNAc(b1-3)Gal(b1-4)GlcNAc(b1-6)]GalNAc", "in_short": "as §1"}, "[27]": {"biological_target": "Neu5Ac(a2-3)Gal(b1-4)GlcNAc(b1-3)Gal(b1-4)GlcNAc(b1-6)[Gal(b1-3)]GalNAc", "in_short": "as §1"}, "[28]": {"biological_target": "Neu5Ac(a2-3)Gal(b1-4)GlcNAc(b1-3)Gal(b1-4)[Fuc(a1-3)]GlcNAc", "in_short": "as §1"}, "[29]": {"biological_target": "Neu5Ac(a2-3)Gal(b1-4)GlcNAc(b1-3)GalNAc", "in_short": "as §1"}},
  "note": "The other results are listed elsewhere or left out.",
  "data": [
    {"binder": "B1", "values": [
      {"measurement": "glycan array binding signal (z-score)", "setting": "[1]", "value": 0.957},
      {"measurement": "glycan array binding signal (z-score)", "setting": "[2]", "value": -1.4},
      {"measurement": "glycan array binding signal (z-score)", "setting": "[3]", "value": -0.109},
      {"measurement": "glycan array binding signal (z-score)", "setting": "[4]", "value": 0.441},
      {"measurement": "glycan array binding signal (z-score)", "setting": "[5]", "value": 0.709},
      {"measurement": "glycan array binding signal (z-score)", "setting": "[6]", "value": -0.505},
      {"measurement": "glycan array binding signal (z-score)", "setting": "[7]", "value": 0.679},
      {"measurement": "glycan array binding signal (z-score)", "setting": "[8]", "value": 1.56},
      {"measurement": "glycan array binding signal (z-score)", "setting": "[9]", "value": -0.476},
      {"measurement": "glycan array binding signal (z-score)", "setting": "Neu5Ac(a2-3)Gal(b1-4)Glc", "value": 0.989},
      {"measurement": "glycan array binding signal (z-score)", "setting": "[10]", "value": 1.19},
      {"measurement": "glycan array binding signal (z-score)", "setting": "[11]", "value": 0.291},
      {"measurement": "glycan array binding signal (z-score)", "setting": "[12]", "value": -0.251},
      {"measurement": "glycan array binding signal (z-score)", "setting": "[13]", "value": 0.739},
      {"measurement": "glycan array binding signal (z-score)", "setting": "[14]", "value": 1.18},
      {"measurement": "glycan array binding signal (z-score)", "setting": "[15]", "value": -0.107},
      {"measurement": "glycan array binding signal (z-score)", "setting": "[16]", "value": 6.13},
      {"measurement": "glycan array binding signal (z-score)", "setting": "[17]", "value": -0.512},
      {"measurement": "glycan array binding signal (z-score)", "setting": "[18]", "value": -0.935},
      {"measurement": "glycan array binding signal (z-score)", "setting": "[19]", "value": -0.41},
      {"measurement": "glycan array binding signal (z-score)", "setting": "[20]", "value": -0.049},
      {"measurement": "glycan array binding signal (z-score)", "setting": "[21]", "value": -1.24},
      {"measurement": "glycan array binding signal (z-score)", "setting": "[22]", "value": 0.116},
      {"measurement": "glycan array binding signal (z-score)", "setting": "[23]", "value": -0.802},
      {"measurement": "glycan array binding signal (z-score)", "setting": "[24]", "value": 1.35},
      {"measurement": "glycan array binding signal (z-score)", "setting": "[25]", "value": 1.37},
      {"measurement": "glycan array binding signal (z-score)", "setting": "[26]", "value": -0.535},
      {"measurement": "glycan array binding signal (z-score)", "setting": "[27]", "value": -0.124},
      {"measurement": "glycan array binding signal (z-score)", "setting": "[28]", "value": 0.147},
      {"measurement": "glycan array binding signal (z-score)", "setting": "[29]", "value": -0.764}
    ]}
  ]
}
